Results on one molecule are retold here after paper PMC9669022.

Results are given in words; binding and its absence hold for the method and conditions named. In cells and extracts the contact can be indirect. A yes stands for co-enrichment or nearness to the bait. Other partners may have been found.

The target in the assay is Pbkinesin-8B-GFP (P. berghei). In words: affinity purification with mass spectrometry; GFP-Trap immunoprecipitation of Pbkinesin-8B-GFP from lysate of P. berghei gametocytes activated for 6 min; LC-MS/MS; two biological replicates, GFP-only control.

B1: calcium-dependent protein kinase 4 (protein, UniProt P62345 1-528)
chain: MGQEMSTQSDMQNENQKGNKRNLKGSQGKNGLKERSTSISKEIVKNSFNNSKLRPGMFIQNSNVVFNEQYKGIKILGKGSFGEVILSKDKHTGHEYAIKVISKKHVKRKTDKQSLLREVELLKMLDHINIMKLYEFFEDNNYYYLVSDVYSGGELFDEIISRKRFYEVDAARIIKQVLSGITYMHKNNVVHRDLKPENILLETKNKEDMIIKIIDFGLSTHFEYSKKMKDKIGTAYYIAPDVLHGTYDEKCDIWSCGVILYILLSGCPPFNGSNEYDILKKVETGKYTFDLPQFKKISDKAKDLIKKMLMYTSAVRISARDALEHEWIRLMTSKDNVNIDIPSLELSITNIKQFQSTQKLAQAALLYMGSKLTTIDETKELTKIFKKMDKNGDGQLDRNELIIGYKELLKLKGDDTTDLDNAAIEVEVDQILSSIDLDQNGYIEYSEFLTVAIDRKLLLSTERLEKAFKLFDKDGSGKISANELAQLFGLGDVSSDCWKTVLKEVDQNNDGEIDFKEFRDMLIKLCNY
Take B1: the binding entry is “binds”.
